Results deposited as PubChem BioAssay AID1259308 (NCATS, 2017).

Screen: 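Candidate targets for better recombinant protein yield in mammalian cells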 (primary screen)
System: human HEK293 embryonic kidney cells stably expressing firefly luciferase (HEK-CMV-Luc2-Hygro)
Reagents: single siRNA against human genes, 0.8 pmol siRNA per well
Timing: 72 h
Measured: 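Luciferase light (ONE-Glo) measured on one replicate plate set and viability (CellTiter-Glo) on the other, scaled to a negative control siRNA, with robust z-scores and luciferase per cell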
Direction: total luciferase, z-score: higher = more reporter protein produced
Hit rule: 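Active when the median/MAD z-score for overall luciferase is greater than 3; a gene was taken forward for validation with new siRNAs if at least two of its three siRNAs passed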
Meaning of the calls: active = raised luciferase; inactive = no rise
This is an unselected part of about 59,000 reagents. About 1,510 of them (2.6%) were called active. 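Calls use total luciferase alone and ignore viability, so some active siRNAs may act by altering cell number.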 Reagents against one gene are numbered here. Not all columns of the deposit are shown.

Gene	reagent no.	total luciferase, z-score	outcome
RTCB (RNA 2',3'-cyclic phosphate and 5'-OH ligase)	1	-0.139	inactive
RTCB (RNA 2',3'-cyclic phosphate and 5'-OH ligase)	2	1.33	inactive
RTCB (RNA 2',3'-cyclic phosphate and 5'-OH ligase)	3	2.38	inactive
CCT6A (chaperonin containing TCP1 subunit 6A)	1	3.81	active
CCT6A (chaperonin containing TCP1 subunit 6A)	2	2.14	inactive
CCT6A (chaperonin containing TCP1 subunit 6A)	3	0.447	inactive
UCK1 (uridine-cytidine kinase 1)	1	0.191	inactive
UCK1 (uridine-cytidine kinase 1)	2	1.66	inactive
UCK1 (uridine-cytidine kinase 1)	3	1.21	inactive
TPMT (thiopurine S-methyltransferase)	1	-0.137	inactive
TPMT (thiopurine S-methyltransferase)	2	2.65	inactive
TPMT (thiopurine S-methyltransferase)	3	0.855	inactive
CHP1 (calcineurin like EF-hand protein 1)	1	1.11	inactive
CHP1 (calcineurin like EF-hand protein 1)	2	1.46	inactive
CHP1 (calcineurin like EF-hand protein 1)	3	0.285	inactive
CD164L2 (CD164 molecule like 2)	1	0.295	inactive
CD164L2 (CD164 molecule like 2)	2	-1.53	inactive
CD164L2 (CD164 molecule like 2)	3	4.11	active
PMCH (pro-melanin concentrating hormone)	1	1.63	inactive
PMCH (pro-melanin concentrating hormone)	2	-2.31	inactive
PMCH (pro-melanin concentrating hormone)	3	0.723	inactive
CSNK1G1 (casein kinase 1 gamma 1)	1	0.119	inactive
CSNK1G1 (casein kinase 1 gamma 1)	2	0.0185	inactive
CSNK1G1 (casein kinase 1 gamma 1)	3	-0.114	inactive

3 neighbouring reagents already listed, for reference:
Gene	reagent no.	total luciferase, z-score	outcome
RTCB (RNA 2',3'-cyclic phosphate and 5'-OH ligase)	3	2.38	inactive
CCT6A (chaperonin containing TCP1 subunit 6A)	1	3.81	active
CCT6A (chaperonin containing TCP1 subunit 6A)	2	2.14	inactive
